The source of these data is PMC11815563.

Chains of the proteins cited; added tags and fusions are not shown.
UniProt P40763: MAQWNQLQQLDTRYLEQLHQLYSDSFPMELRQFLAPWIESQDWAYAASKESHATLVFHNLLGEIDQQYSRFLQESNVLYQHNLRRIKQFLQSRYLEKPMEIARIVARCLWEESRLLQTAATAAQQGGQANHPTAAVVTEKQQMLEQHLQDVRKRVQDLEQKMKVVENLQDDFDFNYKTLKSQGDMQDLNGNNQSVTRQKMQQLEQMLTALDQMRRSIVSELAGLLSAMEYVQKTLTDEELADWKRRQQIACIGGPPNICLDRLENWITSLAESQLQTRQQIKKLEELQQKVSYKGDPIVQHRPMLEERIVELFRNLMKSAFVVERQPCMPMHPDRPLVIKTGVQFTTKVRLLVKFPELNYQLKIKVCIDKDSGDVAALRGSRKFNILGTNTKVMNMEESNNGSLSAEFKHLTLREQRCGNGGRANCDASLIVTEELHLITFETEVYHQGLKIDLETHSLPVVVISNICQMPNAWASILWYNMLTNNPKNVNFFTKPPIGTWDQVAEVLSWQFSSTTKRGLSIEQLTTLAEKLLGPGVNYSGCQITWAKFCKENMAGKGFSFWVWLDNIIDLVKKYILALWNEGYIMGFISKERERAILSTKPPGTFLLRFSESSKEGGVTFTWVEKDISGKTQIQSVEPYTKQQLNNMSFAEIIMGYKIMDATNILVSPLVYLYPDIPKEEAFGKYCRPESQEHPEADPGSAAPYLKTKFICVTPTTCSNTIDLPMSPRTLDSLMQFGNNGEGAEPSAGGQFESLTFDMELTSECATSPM
UniProt Q9HCL3: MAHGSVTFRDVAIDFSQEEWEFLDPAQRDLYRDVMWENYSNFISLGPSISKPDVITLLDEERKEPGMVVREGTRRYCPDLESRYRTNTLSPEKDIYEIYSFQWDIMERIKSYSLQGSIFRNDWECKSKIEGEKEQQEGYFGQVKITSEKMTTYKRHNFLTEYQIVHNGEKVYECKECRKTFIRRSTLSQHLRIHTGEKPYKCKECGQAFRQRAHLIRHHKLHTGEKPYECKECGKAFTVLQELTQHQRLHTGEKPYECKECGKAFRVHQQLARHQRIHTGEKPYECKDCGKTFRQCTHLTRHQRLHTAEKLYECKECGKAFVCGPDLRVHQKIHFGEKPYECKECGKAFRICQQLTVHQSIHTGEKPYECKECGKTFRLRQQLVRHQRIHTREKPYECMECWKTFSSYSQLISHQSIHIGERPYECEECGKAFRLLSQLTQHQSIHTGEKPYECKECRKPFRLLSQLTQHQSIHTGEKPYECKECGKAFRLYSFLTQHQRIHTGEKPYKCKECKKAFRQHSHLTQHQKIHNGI

No constants are given. Whether binding was seen depends on the method and setting. Binding seen in cells or lysates may run through a third protein. Some entries that bind do so weakly or less than the wild type.

The target of experiment [1] is signal transducer and activator of transcription 3 (STAT3), endogenous (human (endogenous in Caki-1 and ACHN)) (UniProt P40763). The experiment can be described thus: co-IP; endogenous proteins in Caki‐1 and ACHN cells; lysis in RIPA buffer with 1% PMSF and 1% protease inhibitor; antibody and A/G magnetic beads; western blot; IgG as control antibody. (A western blot detects proteins with antibodies after separation by electrophoresis.)

In another experiment the target is His‐tagged STAT3 (UniProt P40763). The experiment can be described thus: co-IP; Flag‐ZFP14 and His‐STAT3 co‐transfected in HEK293T cells; immunoprecipitation with His‐tag antibody; RIPA lysis, A/G magnetic beads, western blot.
Another experiment concerns the target Flag‐tagged ZFP14 (UniProt Q9HCL3). The experiment can be described thus: co-IP; Flag‐ZFP14 and His‐STAT3 co‐transfected in HEK293T cells; immunoprecipitation with Flag‐tag antibody; RIPA lysis, A/G magnetic beads, western blot.

For “zinc finger protein 14 (ZFP14), endogenous (from UniProt Q9HCL3 1-533)”, the binding entry in experiment [1] is “binds”.
As for “Flag‐tagged ZFP14 (from UniProt Q9HCL3 1-533)”, the binding entry with His‐tagged STAT3 is reported as “binds”.
Consider “His‐tagged STAT3 (from UniProt P40763 1-770)”, for which, in the experiment with Flag‐tagged ZFP14, the binding entry is “binds”.
